We go through five substances from publication PMC8430998.

Where a chain is given by its changes, count along the chain named. Results are given in words; binding and its absence hold for the method and conditions named. In cells and extracts the contact can be indirect. Binding calls can cover weak binding; strength is not graded here. Sequences can lack the tags named with a protein.

Experiment [1] addresses T1, CSHQ-NRDP1-FLAG (UniProt Q9H4P4).
T1 sequence: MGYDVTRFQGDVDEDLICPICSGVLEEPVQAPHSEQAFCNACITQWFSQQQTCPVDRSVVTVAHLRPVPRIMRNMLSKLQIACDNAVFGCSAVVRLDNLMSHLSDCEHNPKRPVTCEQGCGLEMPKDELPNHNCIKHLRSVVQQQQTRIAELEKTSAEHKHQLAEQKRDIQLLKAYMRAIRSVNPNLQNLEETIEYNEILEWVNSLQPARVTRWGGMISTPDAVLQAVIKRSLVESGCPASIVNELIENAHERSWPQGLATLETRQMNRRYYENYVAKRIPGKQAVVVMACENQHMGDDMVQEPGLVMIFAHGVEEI
Put plainly: co-IP; cells (LNCaP by the text, PC-3 by the legend) co-transfected with AR constructs and FLAG-tagged NRDP1-CSHQ (3 μg per 100 mm dish, 72 h); FLAG immunoprecipitation, western blot for AR.

Experiment [2] concerns the target T2, Wt-NRDP1-FLAG (UniProt Q9H4P4).
T2 sequence: T1 sequence with S34C, Q36H
Description: co-IP; LNCaP cells transfected with FLAG-tagged NRDP1 constructs (3 μg per 100 mm dish, 72 h); FLAG immunoprecipitation from IP lysis buffer lysate, protein A agarose, western blot for endogenous AR.

In experiment [3] the target is T1, CSHQ-NRDP1-FLAG. The description is as above.

In the case of “AR-ΔDBD (missing residues 538–614 of the DNA binding domain) (receptor)”, in experiment [1], the binding entry is “binds”.
The same measure, in the same setting: the entry for “pEL 77 AR (missing residues 647–670 of the hinge domain) (receptor)” is “no binding”.
In the case of “Androgen receptor (endogenous in LNCaP cells, mutant AR T877A) (human (endogenous in LNCaP))”, the binding entry in experiment [2] and in experiment [3] was “binds” throughout.
As for Wt-AR (receptor), the binding result in experiment [1] is reported as “binds”.
For “AR w/o (missing residues 628–646 of the hinge domain) (receptor)”, in experiment [1], the binding result is reported as “no binding”.
